Data taken from publication PMC6458997, “Deciphering the Molecular Mechanism Underpinning Phage Arbitrium Communication Systems” (Molecular Cell, 2019).
No signal at the amounts used counts as a negative. At least one verdict was read from the data and is not stated in words by the source. The exact form of at least one protein or probe is not confirmed. A weaker result is weaker than the reference pair of the same experiment.

Molecular target: AimR (SPbeta) (UniProt O31927)
Experiment: EMSA
Details: EMSA: 50 mM HEPES pH 7.5, 5 mM MgCl2, 75 mM NaCl, 0.5 mM EDTA, 0.4 uM DNA, 4 uM AimR, 10 min at room temperature, recombinant protein, residues 1-386, protein details: N-terminal 6xHis-TEV, cleaved
[1] = SAIRGA peptide (no release), probe letters rebuilt from the primers and the genome
[2] = apo, probe letters rebuilt from the primers and the genome
[3] = apo, dramatic loss beyond -2 bp
[4] = apo, similar affinity for 23-28 bp
[5] = boundary mutation, minor effect
[6] = apo, gradual decrease over 28 bp
[7] = palindrome mutation, affects or abolishes

Sequence	binding result (GMPRGA peptide)	binding result [3]	also measured
GAGGGTCAGGGAATTTCGATGAGGCATGGGAAGGAGAAATCCTTGATTTAGAATTTGAGTACACGGTTCTTTGTTTAGAAAAGGGGTTAGAACCACTCAATTATATTATTACCTGGGAAGGATAGGAATTAGCTTTAACAAGTGATTATACCGTTTTAAATGAGTCACAATAGTTCAAAGCAGCGATTCTTTTCTTGAATAAAGAATGTTTAGCTTCAGATATATATCAAAATAAAATGCATATTTTAAATAGAATATGGATAGTGAAAGCTGTACAGAACAAAATTGGAGATGGTCATGATTGATCTTCAAGAAGACAGGTTCATTAAATAATCGCATAGAATTAGGGACAGAGAATTAAAAGAAAAGAAGCAGGTTTGGAACTCTATGGGGAATGACCTCCTTAGTGAAGGAATTGCAAAAGTAATGAAGAACTTAAATAATAGACTTTAAAATTTGAGAAAATAATTAGGTGATAAATTTGGAAAATATAGCTCTTGAATCC (double strand) [yonX-yopA intergenic]			binding result [1]: binds; binding result [2]: binds
GGAAGAAGTTAATAAATATTACGCAGAAGAACTAGGTCTAAAAGAGACGACCATTTAAATATGAAATCCATTTGACTATTTTGGTTAAATGGATTTTTCTTTTATCTCAAAAAATTGTGAAAAAATTCGCATTTCGACAAAAATAGACAAAATAATCACTTTAAATACATGTTTAAATGTAGTAAGATGGTCATGTAAACCATATGGTTTACTAAGGAGGAGACCAAGACCAAAGTCTTAGTCGTTTCAATGCCTTTCAACCTTGAATTCATAGAGGTCTTCGACATTACAATCTAAAGCAGCAGC (double strand) [yopR-yopS intergenic]			binding result [1]: binds; binding result [2]: binds
GTTAAATCACTGATGTTATTAAAACCTAATATTAGTGATTAAGCC (double strand) [Sp-3 (22 bp spacer)]	no binding	binds more weakly	
GTTAAATCACTGATGTTATTAAAACCTAATATTTAGTGATAAGCC (double strand) [Sp-2 (23 bp spacer)]	no binding		binding result [4]: binds
GTTAAGAATCACTTGTTATTAAAACCTAATAAGTGATTTTAAGCC (double strand) [Sp-7 (18 bp spacer)]	no binding	binds more weakly	
GTTAAGAATCACTTGTTATTAAAACCTAATATAGTGATTTAAGCC (double strand) [Sp-6 (19 bp spacer)]	no binding	binds more weakly	
GTTAAGATATCACTGTTATTAAAACCTAATAAGTGATTTTAAGCC (double strand) [Sp-8 (17 bp spacer)]	no binding	binds more weakly	
GTTAAGATATCACTGTTATTAAAACCTAATAGTGATATTTAAGCC (double strand) [Sp-9 (16 bp spacer)]	no binding	binds more weakly	
GTTAAGATCACTATGTTATTAAAACCTAATATAGTGATTTAAGCC (double strand) [Sp-5 (20 bp spacer)]	no binding	binds more weakly	
GTTAAGATCACTATGTTATTAAAACCTAATATTAGTGATTAAGCC (double strand) [Sp-4 (21 bp spacer)]	no binding	binds more weakly	
GTTAAGATGATCACTTATTAAAACCTAAAGTGATATTTAAGCC (double strand) [Sp-12 (13 bp spacer)]	no binding	binds more weakly	
GTTAAGATGATCACTTATTAAAACCTAAGTGATATTTAAGCC (double strand) [Sp-13 (12 bp spacer)]	no binding	binds more weakly	
GTTAAGATGATCACTTTATTAAAACCTAAAGTGATATTTAAGCC (double strand) [Sp-11 (14 bp spacer)]	no binding	binds more weakly	
GTTAAGATGATCACTTTATTAAAACCTAATAGTGATATTTAAGCC (double strand) [Sp-10 (15 bp spacer)]	no binding	binds more weakly	
GTTAATCACTAAGATGTTATTAAAACCTAATATTTAAAGTGATAGCC (double strand) [Sp+2 (27 bp spacer)]	no binding		binding result [4]: binds
GTTAATCACTAAGATGTTATTAAAACCTAATATTTAATAGTGATAGCC (double strand) [Sp+3 (28 bp spacer)]	no binding		binding result [4]: binds
GTTAATCACTAGATGTTATTAAAACCTAATATTTAAAGTGATAGCC (double strand) [Sp+1 (26 bp spacer)]	no binding		binding result [4]: binds

Sequence	binding result (GMPRGA peptide)	binding result [3]	also measured
GTTAATCACTAGATGTTATTAAAACCTAATATTTAAGTGATAGCC (double strand) [Mut-1]			binding result [5]: binds
GTTAATCACTAGATGTTATTAAAACCTAATATTTAGTGATAAGCC (double strand) [Sp-1 (24 bp spacer)]	no binding		binding result [4]: binds
GTTAATCACTATAAGATGTTATTAAAACCTAATATTTAATAAGTGATAGCC (double strand) [Sp+6 (31 bp spacer)]	no binding		binding result [6]: binds more weakly
GTTAATCACTATAAGATGTTATTAAAACCTAATATTTAATATAGTGATAGCC (double strand) [Sp+7 (32 bp spacer)]	no binding		binding result [6]: binds more weakly
GTTAATCACTATATAAGATGTTATTAAAACCTAATATTTAATATAAGTGATAGCC (double strand) [Sp+10 (35 bp spacer)]	no binding		binding result [6]: binds more weakly
GTTAATCACTTAAGATGTTATTAAAACCTAATATTTAATAAGTGATAGCC (double strand) [Sp+5 (30 bp spacer)]	no binding		binding result [6]: binds more weakly
GTTAATCACTTAAGATGTTATTAAAACCTAATATTTAATAGTGATAGCC (double strand) [Sp+4 (29 bp spacer)]	no binding		binding result [6]: binds more weakly
GTTAATCACTTATAAGATGTTATTAAAACCTAATATTTAATATAAGTGATAGCC (double strand) [Sp+9 (34 bp spacer)]	no binding		binding result [6]: binds more weakly
GTTAATCACTTATAAGATGTTATTAAAACCTAATATTTAATATAGTGATAGCC (double strand) [Sp+8 (33 bp spacer)]	no binding		binding result [6]: binds more weakly
GTTAGTCACTAGATGTTATTAAAACCTAATATTTAAGTGACAGCC (double strand) [Mut6]			binding result [7]: binds more weakly
GTTGACCACTAGATGTTATTAAAACCTAATATTTAAGTGGTGGCC (double strand) [Mut5]			binding result [7]: binds more weakly
GTTGATCACCAGATGTTATTAAAACCTAATATTTAGGTGATGGCC (double strand) [Mut1]			binding result [7]: binds more weakly
GTTGATCACTGGATGTTATTAAAACCTAATATTTCAGTGATGGCC (double strand) [Mut+1]			binding result [5]: binds
GTTGATCATTAGATGTTATTAAAACCTAATATTTAAATGATGGCC (double strand) [Mut2]			binding result (box position 5, among strongest effects): binds more weakly
GTTGATCGCTAGATGTTATTAAAACCTAATATTTAAGCGATGGCC (double strand) [Mut3]			binding result (box position 4, among strongest effects): binds more weakly
GTTGATTACTAGATGTTATTAAAACCTAATATTTAAGTAATGGCC (double strand) [Mut4]			binding result [7]: binds more weakly
